Test results from the supplement of paper PMC10849652.
This is one part of the list.

By UniProt entry, the sequences of proteins in these tests, tags left out. Where a name states a change or a piece, a line headed by the entry shows the natural chain unless it says otherwise.
UniProt P25788: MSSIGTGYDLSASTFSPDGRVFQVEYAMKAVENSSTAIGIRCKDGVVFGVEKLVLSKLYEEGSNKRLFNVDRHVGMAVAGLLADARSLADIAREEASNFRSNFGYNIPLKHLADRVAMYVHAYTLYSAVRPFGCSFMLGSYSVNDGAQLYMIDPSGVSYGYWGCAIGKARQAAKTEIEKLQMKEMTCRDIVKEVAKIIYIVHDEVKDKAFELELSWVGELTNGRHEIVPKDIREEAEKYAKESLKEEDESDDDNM
UniProt Q9BRP8: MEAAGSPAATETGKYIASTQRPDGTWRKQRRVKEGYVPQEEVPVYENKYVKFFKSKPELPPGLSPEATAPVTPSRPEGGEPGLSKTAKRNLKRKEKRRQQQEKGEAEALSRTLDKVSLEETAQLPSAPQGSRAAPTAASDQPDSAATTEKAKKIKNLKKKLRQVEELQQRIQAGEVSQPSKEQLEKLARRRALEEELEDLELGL
UniProt O00391: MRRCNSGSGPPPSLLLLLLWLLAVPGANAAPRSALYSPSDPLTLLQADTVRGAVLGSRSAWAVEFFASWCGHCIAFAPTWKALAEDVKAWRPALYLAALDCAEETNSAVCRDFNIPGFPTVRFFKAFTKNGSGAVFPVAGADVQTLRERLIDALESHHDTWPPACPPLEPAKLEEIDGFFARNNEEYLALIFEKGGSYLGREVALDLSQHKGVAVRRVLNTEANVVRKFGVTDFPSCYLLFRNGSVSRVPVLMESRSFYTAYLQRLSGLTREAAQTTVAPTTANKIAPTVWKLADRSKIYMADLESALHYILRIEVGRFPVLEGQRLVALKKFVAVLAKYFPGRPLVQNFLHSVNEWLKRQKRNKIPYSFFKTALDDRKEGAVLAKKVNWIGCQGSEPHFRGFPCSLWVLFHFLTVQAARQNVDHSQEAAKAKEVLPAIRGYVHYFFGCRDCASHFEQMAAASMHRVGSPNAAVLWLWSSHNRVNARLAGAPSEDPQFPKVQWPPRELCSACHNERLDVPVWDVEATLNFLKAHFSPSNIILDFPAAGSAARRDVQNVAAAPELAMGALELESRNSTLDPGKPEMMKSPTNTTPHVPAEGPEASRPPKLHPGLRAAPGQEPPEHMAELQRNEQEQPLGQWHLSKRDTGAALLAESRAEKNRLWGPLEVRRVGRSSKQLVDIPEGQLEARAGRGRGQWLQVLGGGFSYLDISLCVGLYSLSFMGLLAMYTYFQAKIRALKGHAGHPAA
UniProt P26599: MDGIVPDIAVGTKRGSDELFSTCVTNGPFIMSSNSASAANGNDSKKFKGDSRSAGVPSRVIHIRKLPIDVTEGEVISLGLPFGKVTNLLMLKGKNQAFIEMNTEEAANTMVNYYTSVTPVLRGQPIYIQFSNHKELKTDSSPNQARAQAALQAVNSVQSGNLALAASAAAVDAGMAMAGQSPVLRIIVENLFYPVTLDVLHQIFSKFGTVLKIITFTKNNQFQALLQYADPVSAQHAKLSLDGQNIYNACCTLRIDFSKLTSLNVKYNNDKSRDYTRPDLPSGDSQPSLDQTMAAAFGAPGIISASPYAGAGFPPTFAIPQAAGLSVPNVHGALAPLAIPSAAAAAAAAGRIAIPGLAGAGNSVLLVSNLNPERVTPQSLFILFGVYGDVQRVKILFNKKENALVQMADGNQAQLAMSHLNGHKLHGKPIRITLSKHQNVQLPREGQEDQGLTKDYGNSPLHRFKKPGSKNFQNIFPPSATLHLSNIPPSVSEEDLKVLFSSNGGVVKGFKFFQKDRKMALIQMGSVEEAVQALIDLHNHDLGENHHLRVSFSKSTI
UniProt Q9NXS2: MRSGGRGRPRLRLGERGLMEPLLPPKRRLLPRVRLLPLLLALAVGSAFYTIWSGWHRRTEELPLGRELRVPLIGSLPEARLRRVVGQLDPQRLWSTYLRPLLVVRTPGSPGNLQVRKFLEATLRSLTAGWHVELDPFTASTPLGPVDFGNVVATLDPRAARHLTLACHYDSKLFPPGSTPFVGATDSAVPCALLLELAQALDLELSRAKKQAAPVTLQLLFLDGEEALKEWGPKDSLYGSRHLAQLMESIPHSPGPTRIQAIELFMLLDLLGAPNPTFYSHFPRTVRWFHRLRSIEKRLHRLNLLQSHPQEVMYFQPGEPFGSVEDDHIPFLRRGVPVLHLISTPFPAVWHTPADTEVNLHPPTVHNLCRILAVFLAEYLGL
UniProt P28072: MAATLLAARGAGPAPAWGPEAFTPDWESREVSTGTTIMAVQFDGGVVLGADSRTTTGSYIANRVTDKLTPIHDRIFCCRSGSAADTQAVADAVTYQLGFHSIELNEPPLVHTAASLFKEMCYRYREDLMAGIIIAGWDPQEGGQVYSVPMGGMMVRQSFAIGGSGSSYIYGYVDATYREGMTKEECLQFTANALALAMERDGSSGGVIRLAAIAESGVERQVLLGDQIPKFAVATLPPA
UniProt Q969U7: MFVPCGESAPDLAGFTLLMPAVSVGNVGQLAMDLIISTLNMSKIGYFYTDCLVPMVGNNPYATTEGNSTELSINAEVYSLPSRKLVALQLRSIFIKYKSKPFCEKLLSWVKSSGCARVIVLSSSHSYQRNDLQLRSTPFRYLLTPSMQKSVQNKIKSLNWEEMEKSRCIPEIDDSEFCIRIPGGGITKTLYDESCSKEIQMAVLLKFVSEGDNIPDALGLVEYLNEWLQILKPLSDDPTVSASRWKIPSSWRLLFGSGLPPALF
UniProt O00487, whole entry, looked up: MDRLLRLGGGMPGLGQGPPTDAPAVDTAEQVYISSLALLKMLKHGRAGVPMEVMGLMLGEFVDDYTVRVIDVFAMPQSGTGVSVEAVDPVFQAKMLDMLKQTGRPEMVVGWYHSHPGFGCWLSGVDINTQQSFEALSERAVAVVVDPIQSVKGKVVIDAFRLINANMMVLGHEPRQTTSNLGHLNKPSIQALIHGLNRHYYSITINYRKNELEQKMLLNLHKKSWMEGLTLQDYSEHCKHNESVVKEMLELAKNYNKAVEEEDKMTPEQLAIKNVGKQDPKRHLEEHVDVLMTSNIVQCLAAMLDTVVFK
UniProt Q05397, whole entry, looked up: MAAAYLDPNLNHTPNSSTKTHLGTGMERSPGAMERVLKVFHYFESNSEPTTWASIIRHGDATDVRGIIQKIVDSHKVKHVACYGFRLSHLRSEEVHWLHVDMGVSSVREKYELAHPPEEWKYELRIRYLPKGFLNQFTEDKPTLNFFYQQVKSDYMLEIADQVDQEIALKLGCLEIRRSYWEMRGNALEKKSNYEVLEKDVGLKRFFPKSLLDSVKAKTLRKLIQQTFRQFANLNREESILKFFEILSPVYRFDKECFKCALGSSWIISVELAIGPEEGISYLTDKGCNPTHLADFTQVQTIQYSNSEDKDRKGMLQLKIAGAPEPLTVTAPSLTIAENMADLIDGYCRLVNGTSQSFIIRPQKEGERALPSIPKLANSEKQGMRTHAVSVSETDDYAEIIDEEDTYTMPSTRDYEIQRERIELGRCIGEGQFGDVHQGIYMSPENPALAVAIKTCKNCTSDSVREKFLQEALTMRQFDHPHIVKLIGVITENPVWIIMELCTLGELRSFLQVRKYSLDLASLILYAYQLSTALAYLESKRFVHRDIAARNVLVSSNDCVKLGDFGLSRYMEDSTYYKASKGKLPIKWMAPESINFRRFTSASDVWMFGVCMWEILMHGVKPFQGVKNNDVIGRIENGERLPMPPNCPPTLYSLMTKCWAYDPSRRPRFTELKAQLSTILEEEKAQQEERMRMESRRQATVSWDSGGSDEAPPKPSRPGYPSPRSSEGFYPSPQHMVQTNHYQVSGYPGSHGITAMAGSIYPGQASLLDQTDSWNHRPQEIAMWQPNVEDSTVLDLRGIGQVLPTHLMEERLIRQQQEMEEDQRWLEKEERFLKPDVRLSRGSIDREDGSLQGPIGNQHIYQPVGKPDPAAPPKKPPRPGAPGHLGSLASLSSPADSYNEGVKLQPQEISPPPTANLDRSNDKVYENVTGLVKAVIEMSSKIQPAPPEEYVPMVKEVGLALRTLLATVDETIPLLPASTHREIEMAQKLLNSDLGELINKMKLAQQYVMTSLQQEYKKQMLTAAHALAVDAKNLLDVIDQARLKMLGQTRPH
UniProt P62191: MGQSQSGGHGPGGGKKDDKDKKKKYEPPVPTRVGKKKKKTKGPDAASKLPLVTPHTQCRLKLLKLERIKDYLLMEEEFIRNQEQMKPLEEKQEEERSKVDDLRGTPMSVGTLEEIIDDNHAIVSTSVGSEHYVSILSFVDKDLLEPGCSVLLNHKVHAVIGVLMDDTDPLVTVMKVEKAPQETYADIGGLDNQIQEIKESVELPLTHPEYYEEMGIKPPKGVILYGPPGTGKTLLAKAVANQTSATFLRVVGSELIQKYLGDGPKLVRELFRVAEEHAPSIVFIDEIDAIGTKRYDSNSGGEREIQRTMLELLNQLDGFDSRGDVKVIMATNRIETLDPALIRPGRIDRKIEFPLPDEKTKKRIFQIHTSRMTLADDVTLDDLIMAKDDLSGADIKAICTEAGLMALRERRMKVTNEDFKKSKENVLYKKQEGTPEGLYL
UniProt Q8N8N7: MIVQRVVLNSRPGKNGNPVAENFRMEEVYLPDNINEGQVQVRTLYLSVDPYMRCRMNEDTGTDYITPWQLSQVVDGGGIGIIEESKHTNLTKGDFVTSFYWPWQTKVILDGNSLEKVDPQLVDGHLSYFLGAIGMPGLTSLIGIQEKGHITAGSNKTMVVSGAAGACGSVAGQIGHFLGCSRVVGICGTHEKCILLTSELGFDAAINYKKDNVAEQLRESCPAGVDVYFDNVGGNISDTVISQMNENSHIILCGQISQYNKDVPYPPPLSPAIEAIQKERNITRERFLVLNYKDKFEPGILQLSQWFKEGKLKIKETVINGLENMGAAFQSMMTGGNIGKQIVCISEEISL
UniProt Q96PZ0: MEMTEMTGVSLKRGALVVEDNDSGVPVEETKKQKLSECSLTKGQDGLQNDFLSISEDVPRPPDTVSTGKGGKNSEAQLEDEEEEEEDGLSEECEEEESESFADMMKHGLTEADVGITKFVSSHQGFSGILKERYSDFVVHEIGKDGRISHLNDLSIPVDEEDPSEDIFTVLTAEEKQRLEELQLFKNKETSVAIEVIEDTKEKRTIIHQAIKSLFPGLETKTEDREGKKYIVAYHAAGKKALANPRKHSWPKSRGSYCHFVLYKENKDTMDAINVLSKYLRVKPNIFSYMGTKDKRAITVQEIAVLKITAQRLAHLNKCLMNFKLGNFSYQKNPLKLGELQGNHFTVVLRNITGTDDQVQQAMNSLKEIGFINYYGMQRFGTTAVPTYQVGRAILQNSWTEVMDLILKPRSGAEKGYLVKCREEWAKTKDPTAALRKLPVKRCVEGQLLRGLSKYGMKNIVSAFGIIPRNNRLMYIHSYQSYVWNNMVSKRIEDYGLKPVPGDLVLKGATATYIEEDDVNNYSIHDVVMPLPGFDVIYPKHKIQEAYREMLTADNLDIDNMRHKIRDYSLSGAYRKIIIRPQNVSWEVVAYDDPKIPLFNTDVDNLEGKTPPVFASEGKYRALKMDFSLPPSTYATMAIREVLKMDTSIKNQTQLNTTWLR
UniProt Q6PGN9: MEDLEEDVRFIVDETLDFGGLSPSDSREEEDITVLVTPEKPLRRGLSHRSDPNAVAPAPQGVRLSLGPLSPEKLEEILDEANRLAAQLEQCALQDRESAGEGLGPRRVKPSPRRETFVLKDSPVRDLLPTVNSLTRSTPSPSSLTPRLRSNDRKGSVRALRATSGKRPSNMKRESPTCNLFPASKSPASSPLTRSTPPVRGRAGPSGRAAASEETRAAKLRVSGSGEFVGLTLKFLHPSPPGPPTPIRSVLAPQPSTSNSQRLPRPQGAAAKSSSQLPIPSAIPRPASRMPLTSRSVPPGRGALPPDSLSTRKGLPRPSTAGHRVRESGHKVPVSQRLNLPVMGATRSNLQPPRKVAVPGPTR
UniProt Q9H939: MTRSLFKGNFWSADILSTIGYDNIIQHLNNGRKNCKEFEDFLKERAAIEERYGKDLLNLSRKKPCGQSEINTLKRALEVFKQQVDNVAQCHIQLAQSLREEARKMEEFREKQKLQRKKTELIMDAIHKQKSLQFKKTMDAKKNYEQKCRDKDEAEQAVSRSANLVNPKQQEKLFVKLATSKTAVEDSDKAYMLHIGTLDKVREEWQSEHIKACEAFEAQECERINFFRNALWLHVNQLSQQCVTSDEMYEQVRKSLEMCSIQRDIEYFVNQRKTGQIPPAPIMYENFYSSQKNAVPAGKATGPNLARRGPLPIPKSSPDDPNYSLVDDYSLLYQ
UniProt Q9UNM6: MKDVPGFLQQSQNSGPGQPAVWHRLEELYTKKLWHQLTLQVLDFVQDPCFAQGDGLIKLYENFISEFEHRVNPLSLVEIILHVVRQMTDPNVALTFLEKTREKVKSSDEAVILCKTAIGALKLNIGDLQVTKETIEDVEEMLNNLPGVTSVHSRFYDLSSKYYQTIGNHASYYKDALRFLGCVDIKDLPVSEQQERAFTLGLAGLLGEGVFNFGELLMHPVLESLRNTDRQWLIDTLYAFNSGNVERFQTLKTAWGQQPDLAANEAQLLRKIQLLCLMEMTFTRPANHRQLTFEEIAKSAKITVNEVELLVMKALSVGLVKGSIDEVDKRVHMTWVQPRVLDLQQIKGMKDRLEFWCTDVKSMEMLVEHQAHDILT

Key:
Assay in all cases: log2 fold change, soluble protein after heating vs DMSO (PISA); higher = thermal stabilisation; K562 cells, 10 uM, 30 min; active = over 0.2 and 3.5 SD of the protein, either way, in both replicates (recomputed)
[1] = compound: NC(=O)Nc1cc(-c2cccc(F)c2)sc1C(=O)N[C@H]1CCCNC1
Outline: (§1)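 Thermal stability values are relative to control samples and come from duplicates. They are expressed as log2 fold changes. For measurement, K562 cells (2×10^6 cells/mL) received 10 μM compound for 30 min, and aliquots were heated for 3 min over 48°C-58°C, pooled, and extracted at 4°C in PBS with 0.5% NP-40. Soluble protein, the supernatant after 21,000xg for 90 min, was quantified by TMTpro 16plex LC-MS/MS with equalised channel sums.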

[2] = compound: NC(=O)c1cnc(N[C@@H]2CCCC[C@@H]2N)nc1Nc1cccc(-n2nccn2)c1
Outline: as §1

[3] = compound: NC1(c2ccc(-c3nc4ccn5c(=O)[nH]nc5c4cc3-c3ccccc3)cc2)CCC1
Outline: as §1

[4] = compound: NCC(=O)Nc1ccc(-n2nc(C(F)(F)F)cc2-c2ccc3c(ccc4ccccc43)c2)cc1
Outline: as §1

[5] = compound: Nc1ccccc1NC(=O)c1ccc(CNC(=O)OCc2cccnc2)cc1 [entinostat]
Outline: as §1

[6] = compound: O=C(CCCCCCC(=O)Nc1ccccc1)NO [vorinostat]
Outline: as §1

[7] = compound: O=C(CCCCCCNC(=O)c1cnc(N(c2ccccc2)c2ccccc2Cl)nc1)NO [citarinostat]
Outline: as §1

[8] = compound: O=C(O)c1ccc2c(c1)nc(Nc1cccc(Cl)c1)c1ccncc12 [silmitasertib]
Outline: as §1

[9] = compound: O=C1NC(=O)C(c2cnc3ccccn23)=C1c1cn2c3c(cc(F)cc13)CN(C(=O)N1CCCCC1)CC2
Outline: as §1

[10] = compound: c1cc(OCCN2CCCCC2)cc(-c2n[nH]c3ccc(-c4nnc[nH]4)cc23)c1
Outline: as §1

Measured: log2 fold change

PSMA3 (UniProt P25788)
inactive: [1] 0.03 | [2] 0.022 | [3] 0.071 | [4] 0.058 | [5] -0.027 | [6] -0.029 | [7] 0.005 | [8] -0.002 | [9] 0.102 | [10] -0.056

PYM1 (UniProt Q9BRP8)
inactive: [1] -0.008 | [2] 0.054 | [3] 0.129 | [4] 0.016 | [5] -0.042 | [6] -0.03 | [7] -0.053 | [8] 0.043 | [9] 0.063 | [10] -0.107

PUS3 (UniProt Q9BZE2)
inactive: [1] 0.032 | [2] -0.028 | [3] -0.051 | [4] -0.031 | [5] 0.046 | [6] 0.075 | [7] 0.029 | [8] -0.025 | [9] -0.033 | [10] -0.054

QSOX1 (UniProt O00391)
inactive: [1] 0.02 | [2] 0.043 | [3] 0.111 | [4] 0.011 | [5] 0.006 | [6] 0 | [7] -0.242 | [8] -0.149 | [9] 0.086 | [10] 0.049

PTBP1 (UniProt P26599)
inactive: [1] -0.036 | [2] 0.011 | [3] 0.002 | [4] -0.017 | [5] 0.021 | [6] 0.153 | [7] 0.039 | [8] 0 | [9] -0.023 | [10] -0.069

QPCTL (UniProt Q9NXS2)
inactive: [1] 0 | [2] 0.061 | [3] 0.062 | [4] -0.033 | [5] -0.019 | [6] 0.021 | [7] 0.007 | [8] -0.017 | [9] 0.112 | [10] -0.052

PSMB6 (UniProt P28072)
inactive: [1] 0.024 | [2] 0.006 | [3] 0.046 | [4] 0.044 | [5] -0.054 | [6] -0.093 | [7] -0.046 | [8] -0.004 | [9] 0.044 | [10] -0.034

PSMG2 (UniProt Q969U7)
inactive: [1] 0.011 | [2] -0.039 | [3] -0.045 | [4] 0.002 | [5] 0 | [6] -0.009 | [7] 0.027 | [8] -0.011 | [9] -0.031 | [10] -0.001

PSMD14 (UniProt O00487)
inactive: [1] 0.025 | [2] 0.007 | [3] -0.021 | [4] 0.038 | [5] 0.008 | [6] 0.014 | [7] 0.009 | [8] -0.01 | [9] 0.088 | [10] -0.083

PTPN23 (UniProt Q9H3S7)
inactive: [1] -0.039 | [2] 0.011 | [3] -0.081 | [4] -0.063 | [5] 0.06 | [6] 0.05 | [7] 0.05 | [8] 0.037 | [9] -0.065 | [10] -0.024

PSMB2 (UniProt P49721)
inactive: [1] -0.1 | [2] -0.001 | [3] 0.015 | [4] 0.065 | [5] 0.02 | [6] -0.061 | [7] 0.026 | [8] 0.036 | [9] 0.038 | [10] -0.044

PTK2 (UniProt Q05397)
inactive: [1] 0.154 | [2] -0.012 | [3] -0.061 | [4] -0.012 | [5] -0.012 | [6] 0 | [7] -0.007 | [8] -0.02 | [9] 0.004 | [10] -0.02

PYURF (UniProt Q96I23)
inactive: [1] 0.299 | [2] -0.022 | [3] 0.024 | [4] -0.007 | [5] 0.081 | [6] -0.118 | [7] -0.034 | [8] 0.049 | [9] -0.117 | [10] -0.03

Reprinted from the results shown (nine entries):
PUS3 (UniProt Q9BZE2)
inactive: [1] 0.032 | [2] -0.028 | [3] -0.051 | [4] -0.031 | [5] 0.046 | [6] 0.075 | [7] 0.029 | [8] -0.025 | [9] -0.033 | [10] -0.054

QSOX1 (UniProt O00391)
inactive: [1] 0.02 | [2] 0.043 | [3] 0.111 | [4] 0.011 | [5] 0.006 | [6] 0 | [7] -0.242 | [8] -0.149 | [9] 0.086 | [10] 0.049

PTBP1 (UniProt P26599)
inactive: [1] -0.036 | [2] 0.011 | [3] 0.002 | [4] -0.017 | [5] 0.021 | [6] 0.153 | [7] 0.039 | [8] 0 | [9] -0.023 | [10] -0.069

QPCTL (UniProt Q9NXS2)
inactive: [1] 0 | [2] 0.061 | [3] 0.062 | [4] -0.033 | [5] -0.019 | [6] 0.021 | [7] 0.007 | [8] -0.017 | [9] 0.112 | [10] -0.052

PSMB6 (UniProt P28072)
inactive: [1] 0.024 | [2] 0.006 | [3] 0.046 | [4] 0.044 | [5] -0.054 | [6] -0.093 | [7] -0.046 | [8] -0.004 | [9] 0.044 | [10] -0.034

PSMG2 (UniProt Q969U7)
inactive: [1] 0.011 | [2] -0.039 | [3] -0.045 | [4] 0.002 | [5] 0 | [6] -0.009 | [7] 0.027 | [8] -0.011 | [9] -0.031 | [10] -0.001

PSMD14 (UniProt O00487)
inactive: [1] 0.025 | [2] 0.007 | [3] -0.021 | [4] 0.038 | [5] 0.008 | [6] 0.014 | [7] 0.009 | [8] -0.01 | [9] 0.088 | [10] -0.083

PTPN23 (UniProt Q9H3S7)
inactive: [1] -0.039 | [2] 0.011 | [3] -0.081 | [4] -0.063 | [5] 0.06 | [6] 0.05 | [7] 0.05 | [8] 0.037 | [9] -0.065 | [10] -0.024

PSMB2 (UniProt P49721)
inactive: [1] -0.1 | [2] -0.001 | [3] 0.015 | [4] 0.065 | [5] 0.02 | [6] -0.061 | [7] 0.026 | [8] 0.036 | [9] 0.038 | [10] -0.044

Later entries.

PSMC1 (UniProt P62191)
inactive: [1] 0.011 | [2] 0.029 | [3] 0.014 | [4] 0.043 | [5] -0.013 | [6] -0.013 | [7] -0.032 | [8] 0.001 | [9] 0.026 | [10] -0.047

PSME1 (UniProt Q06323)
inactive: [1] -0.003 | [2] -0.021 | [3] -0.036 | [4] 0 | [5] 0.002 | [6] 0.031 | [7] -0.006 | [8] -0.049 | [9] 0 | [10] -0.025

QPRT (UniProt Q15274)
inactive: [1] 0.011 | [2] -0.029 | [3] 0.016 | [4] 0.034 | [5] -0.022 | [6] -0.013 | [7] 0.015 | [8] -0.025 | [9] -0.036 | [10] 0.051

PSMD9 (UniProt O00233)
inactive: [1] 0.041 | [2] 0.017 | [3] 0.022 | [4] 0.072 | [5] 0.017 | [6] 0.086 | [7] 0.029 | [8] -0.013 | [9] -0.027 | [10] 0.005

PWP2 (UniProt Q15269)
inactive: [1] 0.015 | [2] 0.105 | [3] 0.121 | [4] 0.052 | [5] -0.056 | [6] 0.031 | [7] -0.066 | [8] 0.111 | [9] -0.032 | [10] 0.014

PTGR2 (UniProt Q8N8N7)
active: [9] 0.611
inactive: [1] -0.039 | [2] -0.077 | [3] 0.123 | [4] -0.164 | [5] -0.05 | [6] -0.149 | [7] 0.009 | [8] -0.011 | [10] 0.231

PTER (UniProt Q96BW5)
inactive: [1] -0.023 | [2] 0.026 | [3] 0.007 | [4] 0.059 | [5] -0.017 | [6] -0.027 | [7] 0.015 | [8] 0.019 | [9] -0.008 | [10] -0.016

PSMC4 (UniProt P43686)
inactive: [1] 0.018 | [2] -0.016 | [3] 0.028 | [4] 0.027 | [5] -0.023 | [6] -0.023 | [7] -0.015 | [8] -0.015 | [9] 0.043 | [10] -0.051

PUS7 isoform 2 (UniProt Q96PZ0)
inactive: [1] 0.065 | [2] -0.01 | [3] 0.012 | [4] 0.027 | [5] 0.016 | [6] 0.041 | [7] -0.024 | [8] -0.014 | [9] -0.002 | [10] -0.079

PTTG1 (UniProt O95997)
inactive: [1] -0.006 | [2] -0.098 | [3] -0.015 | [4] -0.071 | [5] 0.035 | [6] -0.043 | [7] 0.027 | [8] -0.002 | [9] -0.023 | [10] -0.128

PSRC1 (UniProt Q6PGN9)
inactive: [1] -0.033 | [2] -0.028 | [3] 0.039 | [4] -0.017 | [5] -0.006 | [6] 0.039 | [7] -0.004 | [8] -0.01 | [9] 0.052 | [10] -0.102

PSMB3 (UniProt P49720)
inactive: [1] 0.046 | [2] 0.058 | [3] -0.014 | [4] 0.067 | [5] -0.056 | [6] -0.045 | [7] 0 | [8] 0.033 | [9] 0.055 | [10] -0.076

PSMG4 isoform 2 (UniProt Q5JS54)
inactive: [1] 0.457 | [2] 0.037 | [3] 0.079 | [4] 0.085 | [5] 0.225 | [6] 0.058 | [7] -0.079 | [8] -0.144 | [9] 0.064 | [10] 0.003

PSMD6 (UniProt Q15008)
inactive: [1] -0.028 | [2] 0.037 | [3] -0.024 | [4] 0.082 | [5] -0.045 | [6] -0.001 | [7] -0.017 | [8] 0.011 | [9] 0.039 | [10] -0.063

PTTG1IP (UniProt P53801)
inactive: [1] -0.033 | [2] 0.026 | [3] -0.222 | [4] 0.065 | [5] 0.12 | [6] -0.077 | [7] -0.017 | [8] 0.083 | [9] 0.017 | [10] 0.07

PSTPIP2 (UniProt Q9H939)
inactive: [1] -0.026 | [2] -0.136 | [3] 0.027 | [4] -0.095 | [5] 0.064 | [6] -0.018 | [7] 0 | [8] -0.01 | [9] 0.032 | [10] 0.006

PSMD13 (UniProt Q9UNM6)
inactive: [1] -0.049 | [2] 0.015 | [3] -0.044 | [4] 0.006 | [5] -0.018 | [6] 0.001 | [7] -0.017 | [8] 0.033 | [9] 0.044 | [10] -0.108
